Assay results published in patent USRE49294.
Where a protein sequence is shown, tags need not be part of it.

Target: T1, Cre recombinase (bacteriophage P1) (UniProt P06956)
T1 sequence (looked up, limits assumed): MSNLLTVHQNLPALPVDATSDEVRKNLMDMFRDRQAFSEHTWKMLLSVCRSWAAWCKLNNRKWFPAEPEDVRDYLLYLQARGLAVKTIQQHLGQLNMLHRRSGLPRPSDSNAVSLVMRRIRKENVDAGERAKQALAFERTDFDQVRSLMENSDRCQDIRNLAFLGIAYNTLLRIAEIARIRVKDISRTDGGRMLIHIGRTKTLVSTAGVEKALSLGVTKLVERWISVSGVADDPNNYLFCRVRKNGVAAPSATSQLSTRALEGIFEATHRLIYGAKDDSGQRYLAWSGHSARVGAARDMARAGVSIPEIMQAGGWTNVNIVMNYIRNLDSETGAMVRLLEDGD
Test: activity in cells
Settings: pNN9 with two SS converted to mini ccc at 42 C, none at 30 C; protein in cells; only the site is given

For “TAACTTCGTATAGCATACATTATACGAAGTTAT (double strand) [loxP site within Super Sequence]”, the “activity on this sequence” value was “active”.
